PubChem BioAssay AID1259254 – NCATS – 2017
Test: 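Genome-wide screen for genes that prevent DNA re-replication in cancer cells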 (primary screen). System: human HCT116 colorectal cancer cells. Knock-down reagent: single siRNA against human genes. Time to read-out: 3 days. Read-out: 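Nuclei stained with Hoechst and imaged; cell-cycle phase assigned by DNA content; G2 share scaled per plate, non-targeting siRNA 0%, GMNN siRNA 100%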. Direction: G2 robust z-score and G2 cells, % of GMNN control: higher = more G2 cells, more excess DNA replication; raw share of cells in G2: higher = larger share of cells with G2 DNA content. Rule for the call: 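Active siRNAs have a G2 robust z of 5 or more median absolute deviations over the median, which in these data means about 38% or higher of GMNN control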.
In all, the deposit lists about 59,000 reagents; shown is a random part of them. About 1,550 of all reagents (2.6%) were called active. 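G2 share is only a proxy for re-replication; each gene was hit by three separate siRNAs, and active genes were retested.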 Raw values are not corrected between plates. A number with no mark means an inactive call. No sequences are given here. Not given: the amount of reagent.

gene symbol | PubChem SID | G2 robust z-score | G2 cells, % of GMNN control | raw share of cells in G2 (%)
HAUS2 | SID160743041 | -1.02 | -4.18 | 2.92
HAUS2 | SID160743042 | 2.25 | 18.8 | 11.9
HAUS2 | SID160743043 | -0.537 | -0.808 | 2.88
CA10 | SID160745333 | 1.35 | 12.4 | 8.89
CA10 | SID160745334 | -1.14 | -5.03 | 2.24
CA10 | SID160745335 | -0.126 | 2.08 | 7.34
RPS4Y1 | SID160716137 | 1.29 | 12 | 10.1
RPS4Y1 | SID160716138 | -0.593 | -1.2 | 3.75
RPS4Y1 | SID160716139 | 5.82 (active) | 43.9 | 19.2
UCHL1 | SID160718566 | -0.452 | -0.215 | 5.48
UCHL1 | SID160718567 | -1.61 | -8.38 | 1.94
UCHL1 | SID160731871 | -0.668 | -1.73 | 3.26
ACP2 | SID160777798 | 0.584 | 7.08 | 7.1
ACP2 | SID160777810 | -0.928 | -3.56 | 3.23
ACP2 | SID160777820 | -0.6 | -1.25 | 3.12
TMEM119 | SID160764107 | 0.666 | 7.65 | 6.61
TMEM119 | SID160764108 | 1.1 | 10.7 | 7.93
TMEM119 | SID160764109 | -0.244 | 1.25 | 4.69
GDAP1L1 | SID160734917 | -1.06 | -4.52 | 1.5
GDAP1L1 | SID160748448 | -1.09 | -4.69 | 2.54
GDAP1L1 | SID160748449 | -0.204 | 1.53 | 5.3
CAMKMT | SID160749528 | 0.151 | 4.03 | 6.12
CAMKMT | SID160749529 | 0.076 | 3.5 | 5.84
CAMKMT | SID160749530 | -0.771 | -2.46 | 1.71
CHRNA2 | SID160743186 | -0.337 | 0.6 | 5.51
CHRNA2 | SID160743196 | 0.815 | 8.7 | 7.72
CHRNA2 | SID160743207 | -0.737 | -2.22 | 3.51
TRPC1 | SID160718353 | 3.03 | 24.3 | 14.1
TRPC1 | SID160718355 | -0.152 | 1.9 | 5.42
TRPC1 | SID160718356 | 0.403 | 5.81 | 6.64

Reformatted: 6 of the entries above.
CA10 [SID160745333] | G2 robust z-score: 1.35; G2 cells, % of GMNN control: 12.4; raw share of cells in G2 (%): 8.89
CA10 [SID160745334] | G2 robust z-score: -1.14; G2 cells, % of GMNN control: -5.03; raw share of cells in G2 (%): 2.24
CA10 [SID160745335] | G2 robust z-score: -0.126; G2 cells, % of GMNN control: 2.08; raw share of cells in G2 (%): 7.34
RPS4Y1 [SID160716137] | G2 robust z-score: 1.29; G2 cells, % of GMNN control: 12; raw share of cells in G2 (%): 10.1
RPS4Y1 [SID160716138] | G2 robust z-score: -0.593; G2 cells, % of GMNN control: -1.2; raw share of cells in G2 (%): 3.75
RPS4Y1 [SID160716139] | G2 robust z-score: 5.82 (active); G2 cells, % of GMNN control: 43.9; raw share of cells in G2 (%): 19.2

Additional entries follow:
gene symbol | PubChem SID | G2 robust z-score | G2 cells, % of GMNN control | raw share of cells in G2 (%)
GPD2 | SID160772810 | 0.269 | 4.86 | 7
GPD2 | SID160772821 | 0.242 | 4.67 | 7.04
GPD2 | SID160772831 | -1.01 | -4.12 | 2.19
MAT2B | SID160738795 | -0.191 | 1.62 | 4.52
MAT2B | SID160738796 | 0.348 | 5.42 | 8.62
MAT2B | SID160738797 | 4.81 | 36.8 | 16.4
DDX21 | SID160721681 | -0.205 | 1.53 | 5.25
DDX21 | SID160721682 | 2.07 | 17.6 | 11.4
DDX21 | SID160721683 | 2.28 | 19 | 13.2
SPPL2A | SID160752853 | -0.492 | -0.497 | 5.39
SPPL2A | SID160752854 | 5.77 (active) | 43.6 | 18.8
SPPL2A | SID160752855 | 0.63 | 7.4 | 7.02
GCSAML | SID160758744 | -0.933 | -3.59 | 2.62
GCSAML | SID160758745 | -0.516 | -0.662 | 2.71
GCSAML | SID160758746 | -0.4 | 0.151 | 3.12
TMEM120A | SID160735058 | -0.665 | -1.71 | 1.89
TMEM120A | SID160751453 | -0.635 | -1.5 | 3.61
TMEM120A | SID160751454 | -1.26 | -5.9 | 1.71
